Measured values published in patent US11040958B2, “Triazole antimicrobial derivative, pharmaceutical composition and use thereof” (priority 2017, dated 2021).
Some results were stated once for a whole list of compounds, not compound by compound. At least one compound was matched to its structure with a doubt left.

Legend:
[1] = system: Candida albicans ATCC10231; experiment: Systemic fungal infection in mice, intravenous administration, survival; assay type: in vivo; conditions: ICR mice, tail vein, 5 mg/kg (calculated as voriconazole) once daily for 5 days
Description: (§1) ICR mice, weighing 18-22 g, male, provided by the Hubei Experimental Animal Center.
(§2) The standard strain Candida albicans was purchased from the American Type Culture Collection, and the strain number was ATCC10231.
Before the experiment, a small amount of Candida albicans was picked from the SDA medium preserved at 4° C. by inoculation circle, and inoculated into 1 ml YPD (Yeast Extract Peptone Dextrose Medium, the same below) culture medium, under shake cultivation at 30° C., 200 rpm, activated for 16 hours to make the fungus in the late stage of the exponential growth phase. Blood cell counting plate was used to count. The concentration of the broth was adjusted to 1*10^3-5*10^3 CFU/ml with RPMI1640 (Roswell Park Memorial Institute 1640, the same below) culture medium. The Candida albicans monoclone on the SDA plate was picked and inoculated into 1 ml YPD medium, cultured at 35° C., 200 rpm for 16 hours to the late exponential growth phase, 1% of which was then inoculated in fresh medium for 6 hours, centrifuged at 1000×g for 5 mins, washed three times with saline until the supernatant was colorless, while hemocytometer was used to count. The cell concentration was adjusted to 5*10^6/ml. The tail vein injection of 0.1 ml/10 g was carried out to cause a systemic fungal infection in mice. The mice were randomized into groups of 10 each. Since voriconazole was insoluble in vehicle (physiological saline), the mice of the voriconazole group in the test were injected a commercially available voriconazole (Pfizer, product lot number Z467001), that is, sulfobutyl ether-β-cyclodextrin used as a solubilizer, while other groups used physiological saline as a solvent. After establishing a systemic fungal infection model in mice for 2 hours, each administration group was administered with 5 mg/kg (calculated as voriconazole) drug in the tail vein, with the volume for administration of 0.1 ml/10 g. The mice in the model group were administered 0.1 ml/10 g of 0.9% sodium chloride solution, once daily, for 5 consecutive days. The death situation of the mice was inspected and the survival time was recorded. After a total of 7 days of observation, all dead mice were treated with fire using ethanol.

[2] = system: Candida albicans ATCC10231; experiment: Systemic fungal infection in mice, administration by gavage, survival; assay type: in vivo; conditions: ICR mice, 5 mg/kg (calculated as voriconazole) once daily for 5 days
Description: as §1, §2
Before the experiment, a small amount of Candida albicans was picked from the SDA medium preserved at 4° C. by inoculation circle, inoculated into 1 ml of YPD culture medium, and cultured at 30° C. while being shaken at 200 rpm for 16 hours to make the fungus in the late stage of exponential growth. Blood cell counting plate was used to count, and the concentration of the broth was adjusted to 1*10^3−5*10^3 CFU/ml with RPMI1640 medium. The Candida albicans monoclone on the SDA plate was picked, inoculated into 1 ml YPD medium, cultured at 35° C., 200 rpm for 16 hours to the late exponential growth phase, 1% of which was then inoculated in fresh medium for 6 hours, centrifuged at 1000×g for 5 mins, washed three times with saline until the supernatant was colorless, while hemocytometer was used to count. The cell concentration was adjusted to 5*10^6/ml. The tail vein injection of 0.1 ml/10 g was carried out to cause a systemic fungal infection in mice. The mice were randomized into groups of 10 each. Voriconazole used was in the form of a suspension prepared with CMC-Na (Shanghai Panhong Chemical Technology Co., Ltd.), while other tested drugs were dissolved in saline and sonicated until clarified for administration. After establishing a systemic fungal infection model in mice for 2 hours, each group was administered by gavage with 5 mg/kg (calculated as voriconazole) drug, with the volume for administration of 0.1 ml/10 g. The mice in the model group were administered 0.1 ml/10 g of 0.9% sodium chloride solution, once daily, for 5 consecutive days. The death situation of the mice was inspected and the survival time was recorded. After a total of 7 days of observation, all dead mice were treated with fire using ethanol.

[3] = Pharmacokinetics after single intravenous administration in rats (plasma voriconazole); conditions: SD rats, tail vein injection, 2.5 mg/kg (calculated as voriconazole)
Description: Dosage for administration: 2.5 mg/kg (calculated as voriconazole)
Dosing volume for administration: 2.5 ml/kg
Drug concentration: 1 mg/mL (calculated as voriconazole)
Route of administration: tail vein injection Experimental animals: SD rats, SPF grade, weighing 180-220 g, half male and half female; the SD rats were randomized into groups of 6 animals each, three males and three females in each group. Experimental method: Blood samples were collected at different time points after tail vein administration, and the plasma concentrations of voriconazole were measured.

[4] = Pharmacokinetics after single gastrointestinal (gavage) administration in rats (plasma voriconazole); assay type: in vivo; conditions: SD rats, 2.5 mg/kg (calculated as voriconazole)
Description: Dosing volume for administration: 10 ml/kg
Solvent medium for administration: except for the positive voriconazole group using CMC-Na, the other groups using normal saline
Route of administration: gavage

CC(OC(=O)N(C)c1ncccc1COC(=O)C[C@H](N)C(=O)O)[n+]1cnn(C[C@](O)(c2ccc(F)cc2F)[C@@H](C)c2ncncc2F)c1.[Cl-] (stereo partly shown) [QR16003]
survival rate of mice, day 7 [1]: similar

CC(OC(=O)N(C)c1ncccc1COC(=O)[C@@H](N)CCN)[n+]1cnn(C[C@](O)(c2ccc(F)cc2F)[C@@H](C)c2ncncc2F)c1.[Cl-] (stereo partly shown) [QR16005]
survival rate of mice, day 7 [1]: similar

CC(OC(=O)N(C)c1ncccc1COC(=O)[C@@H](N)CCCNC(N)=O)[n+]1cnn(C[C@](O)(c2ccc(F)cc2F)[C@@H](C)c2ncncc2F)c1.[Cl-] (stereo partly shown) [QR16009]
survival rate of mice, day 7 [1]: similar

CC(OC(=O)N(C)c1ncccc1COC(=O)C(N)Cc1ccc(O)cc1)[n+]1cnn(CC(O)(c2ccc(F)cc2F)C(C)c2ncncc2F)c1.Cl.Cl.[Cl-] (stereo not shown) [QR16018]
survival rate of mice, day 7 [2]: similar
T1/2 [3]: similar
survival rate of mice, day 7 [1]: similar

CNCCC[C@H](N)C(=O)OCc1cccnc1N(C)C(=O)OC(C)[n+]1cnn(C[C@](O)(c2ccc(F)cc2F)[C@@H](C)c2ncncc2F)c1.[Cl-] (stereo partly shown) [QR16019]
survival rate of mice, day 7 [2]: similar
T1/2 [3]: similar
survival rate of mice, day 7 [1]: similar

CC(OC(=O)OCCCCOP(=O)(O)O)[n+]1cnn(C[C@](O)(c2ccc(F)cc2F)[C@@H](C)c2ncncc2F)c1 (stereo partly shown) [QR16024]
survival rate of mice, day 7 [2]: similar
survival rate of mice, day 7 [1]: similar

CC(OC(=O)OCCCCCOP(=O)(O)O)[n+]1cnn(C[C@](O)(c2ccc(F)cc2F)[C@@H](C)c2ncncc2F)c1 (stereo partly shown) [QR16025]
survival rate of mice, day 7 [2]: similar
survival rate of mice, day 7 [1]: similar

CC(OC(=O)OCC(=O)O)[n+]1cnn(C[C@](O)(c2ccc(F)cc2F)[C@@H](C)c2ncncc2F)c1 (stereo partly shown) [QR16026]
Cmax [4]: similar
survival rate of mice, day 7 [1]: similar

CC(OC(=O)OCCC(N)C(=O)O)[n+]1cnn(CC(O)(c2ccc(F)cc2F)C(C)c2ncncc2F)c1 (stereo not shown) [QR16027]
Cmax [4]: similar
survival rate of mice, day 7 [1]: similar

CC(OC(=O)OCCOCCOP(=O)(O)O)[n+]1cnn(C[C@](O)(c2ccc(F)cc2F)[C@@H](C)c2ncncc2F)c1 (stereo partly shown) [QR16030]
survival rate of mice, day 7 [1]: similar

CC(OC(=O)OCCOCCOCCOP(=O)(O)O)[n+]1cnn(C[C@](O)(c2ccc(F)cc2F)[C@@H](C)c2ncncc2F)c1 (stereo partly shown) [QR16033]
Cmax [4]: similar
survival rate of mice, day 7 [2]: similar
survival rate of mice, day 7 [1]: similar

CC(OC(=O)SC[C@H](N)C(=O)O)[n+]1cnn(C[C@](O)(c2ccc(F)cc2F)[C@@H](C)c2ncncc2F)c1 (stereo partly shown) [QR16034]
Cmax [4]: similar
survival rate of mice, day 7 [2]: similar
survival rate of mice, day 7 [1]: similar

CN[C@@H](CSC(=O)OC(C)[n+]1cnn(C[C@](O)(c2ccc(F)cc2F)[C@@H](C)c2ncncc2F)c1)C(=O)O.Cl.[Cl-] (stereo partly shown) [QR16035]
Cmax [4]: similar
survival rate of mice, day 7 [2]: similar
survival rate of mice, day 7 [1]: similar

CC(OC(=O)NCC(=O)O)[n+]1cnn(C[C@](O)(c2ccc(F)cc2F)[C@@H](C)c2ncncc2F)c1 (stereo partly shown) [QR16038]
Cmax [4]: similar
survival rate of mice, day 7 [2]: similar
survival rate of mice, day 7 [1]: similar

CC(OC(=O)NCC[C@H](N)C(=O)O)[n+]1cnn(C[C@](O)(c2ccc(F)cc2F)[C@@H](C)c2ncncc2F)c1.Cl.[Cl-] (stereo partly shown) [QR16039]
Cmax [4]: similar
survival rate of mice, day 7 [2]: similar
survival rate of mice, day 7 [1]: similar

C[C@@H](c1ncncc1F)[C@](O)(Cn1c[n+](CC(=O)O)cn1)c1ccc(F)cc1F [QR16043]
Cmax [4]: similar
survival rate of mice, day 7 [2]: similar
survival rate of mice, day 7 [1]: similar

CC(OC(=O)N(C)c1ncccc1COC(=O)CN(C)C)[n+]1cnn(C[C@](O)(c2ccc(F)cc2F)[C@@H](C)c2ncncc2F)c1.Cl.Cl.[Cl-] (stereo partly shown) [QR16045]
survival rate of mice, day 7 [1]: similar
